# pEC50: −log10 of the molar value.
# Experiments:
# [1] = test system: PC3 pancreatic, MDAMB231 breast cancer cells and mouse melanoma cell line B16F10; assay: cells
# [2] = Reverse pH gradient encapsulation efficiency of staurosporine in liposomes
compound,measurement,setting,value
"CN[C@@H]1C[C@H]2O[C@@](C)([C@@H]1OC)n1c3ccccc3c3c4c(c5c6ccccc6n2c5c31)C(=O)NC4 [free staurosporine, (9S, 10R, 11R, 13R)-2,3,10,11,12,13-Hexahydro-10-methoxy-9-methyl-11-(methylamino)-9,13-epoxy-1H,9H-diindolo[1,2,3-gh:3′,2′r-lm]pyrrolo[3,4-j][1,7]benzodiazonin-1-one]",pEC50,[1],4.30 to 5.00
same,Encapsulation efficiency,"[2]; external buffer HEPES or PBS pH 3, internal buffer pH 7.4",~70%
same,Encapsulation efficiency,"[2]; internal buffer pH 7.4, ammonium phosphate 300 mM, external pH 3",70%
same,Encapsulation efficiency,"[2]; internal buffer pH 7.4, ammonium sulfate, external pH 3",65%
same,Encapsulation efficiency,"[2]; internal buffer pH 7.4, sodium phosphate or sodium sulfate, external pH 3",3-4%
same,Loading of staurosporine (encapsulation efficiency),[2]; internal pH of 3 and external pH of 7.4,~5%
